Assay results: PMC12486255

B1: Caspase 1 (protein, UniProt P43527 1-402)
chain: MADKVLRAKRKQFINSVSVGTINGLLDELLEKRVLNQEEMDTIKLANITVMEKARDLCDHVTKKGPRASQMFITYICNEDCYLAEILELQSGPSAETVFVTEDSKGGHPFSSETKEKLNKEGGAFPGPSGSLKFCPLEIAQKLWKENHSEIYPIMKTPTRTRLALIICNTDFQHLSRRVGADVDLREMKLLLQDLGYTVKVKENLTALEMTKELKEFAACPEHKTSDSTFLVFMSHGLQEGICGITYSNEVADILKVDTIFQMMNTLKCPSLKDKPKVIIIQACRGEKQGVVLLKDSVGNSEEGFLTDAIFEDDGIKKAHIEKDFIAFCSSTPDNVSWRHPVRGSLFIESLIKHMKEYAWSCDLEDIFRKVRFSFEQPDSRLQMPTTERVTLTKRFYLFPGH
B2: AIM2 (protein, UniProt D4A9W0 1-356)
chain: MESDFREMLLLTGLDHITEEELKRFKYLALTEFNIPRKTLNIADRTELADQLIQSAGAASAVAKAISIFQKLNYMDIAKALEEKKKEAESKYVTNTKKRGTQKVENRSQAKNCSVASATCSDKDFKGHSATEVCPQVKPQKKQMVAEQEAIREDLQQDSLVVMVLKAMNPFECETQEGKQKIFHATVATETEFFFVKVLNAQFKDKFIPKRTIQISNYLRHSYFVEVTSSSVVVDVESSHKVCVPNNIMKKAGETPKISKLKTLPCGTIVNGLFKVQKITEQKDRVIYGIHDKRGTMEVLVLGNQSKTKCEEGDKIRLTFFEVSNNRGKIQLKSGPCSIYKVIKAAKPKTKVKSVE
B3: Pyrin (protein, UniProt Q9JJ25 1-747)
chain: MANTRVDHLLNTLEELLPYELEKFKFKLHTTSLEKGHSRIPLSLVKMARPIKLTRLLLTYYGEEYAVRLTLQILRATNQRQLAEELHKATGPEHLTEENGVGGSVQSSAENKDKGVKGSDVPGEDEAQQNDDESDILPPIQAEVGKGPQKKSLAKRKDQRGPESLDSQTKPGARSAAPLYRRTLVTQSPGDKENRAGAQPQECQLCREAARSTAMSQGGERSRRLKCICLQERSDPGVLKLPLTQKKENPQIQKLFRLKRKQEMAVSFVREATLNGRTTGTLEKGVGIPEHSMMLDEETSRNMSSKISLTREKRCTASWTENGNGGPETPETLGETVSSILCDSCSPKVLLSLGEKLAQTPEDPASLGQAASKGRSRDKVACPLCHTQGELPAKACVQSSCSCSVAPGDPKASGRHSICFQCQSSRAGKSCEAQSPQFLPQCPRHMKQVQLLFCEDHREPICLICRLSQEHQGHRVRPIEEAALQYKEQIRKQLERLREMRGYVEEHKLPADKKAEDFLKQTETQKQRISCPLEKLFQFLEQQEQLFVTWLQELVQTIGKVRETYYTQVSLLDKLIGELEAKQDQPEWELMQDIGATLHRAETMTASELLGIPPGVKEKLHLLYQKSKSAEKNMQRFSEMLGSEMAFSASDVATREGCRPSTTKAQALIPTVHLKCDGAHTQDFDVILCAELEAGGSEPQDYLHPSSAQDTPELHEIHSQNNKRKFKSFLKWKPSFSRTDRCLRTCW
B4: Caspase 8 (protein, UniProt Q9JHX4 1-482)
chain: MDFHSCLYDIAERLGNEELAALKFLCLDHIPQKKQESINDVLVLFQRLQEEGMLEEDNLSFLKELLFHISRRDLLSRVLKSSPEEMVRELQVLGKAQVSAYRVMLFKLSEDMDKEDLKSFKFLLITEIPKCKLQDNSSLLDIFVEMEKRTILAENNLVTLKSICFRVNRSLLGRIDDYERSSTERRMSTEGGEELPVSVLDEVTIKMQDMWDSPGEQESESLNSDNVYQMKSKPRGYCLIFNNNNFSKAREDIPKLSNMRDRKGTNYDEEALSKTFKELHFEIVSFSDCTASQIHEVLVSYQSKDHKGKDCFICCILSHGDKGIVYGTDGKEASIYELTSYFTGSKCPSLAGKPKIFFIQACQGNNFQKAVPVPDETGLEQEHVLEEDSSSYKNYIPDEADFLLGMATVKNCVSYRDPTRGTWYIQSLCQSLRERCPRGEDILSILTGVNYDVSNKDNPRNMGKQMPQPIFTLRKKLFFPPN
B5: Receptor Interacting Protein Kinase 3 (protein, UniProt Q9Z2P5 1-478)
chain: MSSVKLWLNGASSISLVGSEELENLGFVGKGGFGAVFRARHTAWNLDVAVKIVNSKKISREVKAMVNLRHENVLLLLGVTENLEWDYVYGPALVTGFMENGSLSGLLQPSCPRPWPLLCRLLEEVVLGMCYLHSLNPSLLHRDLKPSNVLLDPELHAKLADFGLSTFQGGSQSGSGSGSRDSGGTLAYLAPELLDNDGKASKASDVYSFGVLVWTVLAGREAEVVDKTSLIRGAVCNRQRRPPLTELPPDSPETPGLEGLKELMTHCWSSEPKDRPSFQDCESKTNNVYILVQDKVDAAVSKVKHYLSQYRSSDTKLSARESSQKGTEVDCPRETIVYEMLDRLHLEEPSGSVPERLTSLTERRGKEASFGHATPAGTSSDTLAGTPQIPHTLPSRGTTPRPAFTETPGPDPQRNQGDGRNSNPWYTWNAPNPMTGLQSIVLNNCSEVQIGQHNCMSVQPRTAFPKKEPAQFGRGRGW
B6: Z-DNA binding protein 1 (protein, UniProt Q8VDA5 1-409)
chain: MAEASVDLGTGDNLEQKILQVLSDAGSPVQIDQLLKKLQVPKKILNQVLYRLKKEGRVSSPAPATWSLGGDGASGDGAPEIPEDSAAQPSLEERILRFLETKGPQRALHIAKALGMTTAKEVNPILYSMRNKHLLTVSDTQMWTIYRSSQEGQERACSGVGQESPAVIYQQNPINMICQQGPNSLISISNSKAIQIGHGNVMSRQTICGDPGPGTPHHAPLPVLEDAAAQDTPPGTHGAQLIHLNKSMLRRVQLGHGNEMNLERDPVEHPIFSFSSSPPESTTTADPETAFNMQTPEPGPHPEGGTTQIVHIKSCLLEDTTVGNNNKMTIHRRSKGGTKESADSQELKEDTGASSEATPPRSCLHTPSDSTLLTSELTAMALGDGSPQITESMLREDEVQAAETCQTQD

target: apoptosis-associated speck-like protein containing a CARD (rat (endogenous in primary rat articular chondrocytes)); test: co-IP; lysates of primary rat articular chondrocytes treated with pH 6.0 acid for 12 h; IP with anti-ASC antibody or rabbit IgG control, protein A/G magnetic beads (Classic IP/CoIP Kit), immunoblot

| binding | Binder |
| --- | --- |
| binds | B1 |
| binds | B2 |
| binds | B3 |
| binds | B4 |
| binds | B5 |
| binds | B6 |

No constants are given. Whether binding was seen depends on the method and setting. In cells and extracts the contact can be indirect. Binding calls can cover weak binding; strength is not graded here.
